According to the supplement of paper PMC12889115:
This is one part of the list. Values are raw readings; no control value is given beside them.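 Primary screen: polymyxin B was added at a level permeabilizing Salmonella outer membranes while sparing inner membranes. DMSO wells, both with and without polymyxin B, established maximum growth. Plate-to-plate variation meant each plate was ranked on its own, and the lowest-OD600 compounds were selected as hits.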

Test system: Salmonella enterica serovar Typhimurium SL1344
Experiment: bacterial growth OD600 after 18 h with compound and polymyxin B; higher = more bacterial growth (less inhibition)
Details: 50 µM, Mueller-Hinton broth

Cn1cc(CNc2ccc(C(=O)N3CCC(Cn4cccn4)CC3)cn2)cn1
bacterial growth OD600 (polymyxin B 1 µg/mL): 1.14

O=C(NCCc1cccnc1)C1CCC(=O)N(CCCc2ccccc2)C1 (stereo unspecified)
bacterial growth OD600 (polymyxin B 1 µg/mL): 1.33

COc1ccc(CN2CCC(c3nc(-c4ccncc4)ncc3-c3cccc(C)c3)CC2)cc1
bacterial growth OD600 (polymyxin B 0.75 µg/mL): 0.689

Cc1cnc(C)c(N2CCC(C3CCN(c4ncccn4)CC3)C2)n1 (stereo unspecified)
bacterial growth OD600 (polymyxin B 0.75 µg/mL): 0.479

COc1ccccc1CNC(=O)c1c(OC)cc(=O)n2c1CCN(Cc1cccc(F)c1)CC2
bacterial growth OD600 (polymyxin B 0.75 µg/mL): 0.822

Cc1cccc(CNC(=O)C2CC23CCN(C(=O)CCC2CCCC2)CC3)n1 (stereo unspecified)
bacterial growth OD600 (polymyxin B 0.75 µg/mL): 0.951

C=CCNC(=O)C1CCCN(C2CCN(c3nc4ccccc4o3)CC2)C1 (stereo unspecified)
bacterial growth OD600 (polymyxin B 0.75 µg/mL): 0.801

COc1cccc(CCC2CCCN(C(=O)c3ocnc3C)C2)c1 (stereo unspecified)
bacterial growth OD600 (polymyxin B 0.75 µg/mL): 0.714

Cc1ccc(Oc2ncccc2CNS(=O)(=O)c2ccc(C)s2)cn1
bacterial growth OD600 (polymyxin B 0.75 µg/mL): 0.957

COc1cccc(CC(C2CCN(C(=O)C3CCCCC3)CC2)N(C)C(=O)c2ccn(C)n2)c1 (stereo unspecified)
bacterial growth OD600 (polymyxin B 0.75 µg/mL): 1.02

Cc1ccccc1N1CCN(c2ncccc2CNCc2nccn2C)CC1
bacterial growth OD600 (polymyxin B 0.75 µg/mL): 0.705

CC(C)CCCC1CN(C(=O)CCN2Cc3ccccc3C2=O)CCO1 (stereo unspecified)
bacterial growth OD600 (polymyxin B 1 µg/mL): 0.89

CC(C)NC1CC(=O)N(Cc2ccccc2C(F)(F)F)C1 (stereo unspecified)
bacterial growth OD600 (polymyxin B 1 µg/mL): 0.958

CCN1CC(CNC(=O)c2cc(NC(=O)COC)cc3ncn(CCc4ccccc4)c23)CC1=O (stereo unspecified)
bacterial growth OD600 (polymyxin B 0.75 µg/mL): 0.901

O=C(c1cccc(F)c1)N1CCOc2ccc(CN3CCC(OCc4ccccc4)CC3)cc2C1
bacterial growth OD600 (polymyxin B 0.75 µg/mL): 0.7

COCCC(=O)Nc1cc(C(=O)N(C)CCc2cnn(C)c2)cc2nc(-c3ccccc3)n(C)c12
bacterial growth OD600 (polymyxin B 0.75 µg/mL): 0.85

Cc1cc(OCc2cc(C(=O)N3CCN(C)C(C)C3)no2)cc(C)c1Cl (stereo unspecified)
bacterial growth OD600 (polymyxin B 0.75 µg/mL): 0.183

O=C(NCc1cccnc1N1CCOCC1)c1ccc2c(c1)OCO2
bacterial growth OD600 (polymyxin B 0.75 µg/mL): 0.818

CN(Cc1cnn(C)c1)CC1(O)CCCN(Cc2ccc(F)c(F)c2)C1=O (stereo unspecified)
bacterial growth OD600 (polymyxin B 1 µg/mL): 0.973

CC[C@H](C)[C@H](NC(=O)C1CCCN(c2nc(C)c3ccc(OC)cc3n2)C1)C(=O)OC (stereo partly specified)
bacterial growth OD600 (polymyxin B 0.75 µg/mL): 0.034

O=C(CCC1CCCN(Cc2ccc(CO)o2)C1)Nc1ccc(C(F)(F)F)cc1 (stereo unspecified)
bacterial growth OD600 (polymyxin B 1 µg/mL): 1.07

Cc1ccoc1C(=O)N1CCC2(CCCN(CCCc3ccccc3)C2)C1 (stereo unspecified)
bacterial growth OD600 (polymyxin B 1 µg/mL): 0.615

Cc1cc(-c2cc(F)cc3c2OC(CNC(=O)C2CCC2)C3)ccc1F (stereo unspecified)
bacterial growth OD600 (polymyxin B 0.75 µg/mL): 0.031

Cc1ccsc1C(=O)N1CCCC(C(=O)c2cccc(Cl)c2)C1 (stereo unspecified)
bacterial growth OD600 (polymyxin B 1 µg/mL): 0.698

CCOC(=O)C1CCCN(C(=O)c2cc(NC(=O)COC)cc3ncn(Cc4ccc(F)cc4)c23)C1 (stereo unspecified)
bacterial growth OD600 (polymyxin B 0.75 µg/mL): 0.83

COc1ccc(CN2CCCC(CO)(Cc3ccc(F)cc3F)C2)cc1O (stereo unspecified)
bacterial growth OD600 (polymyxin B 0.75 µg/mL): 0.665

O=C(NCc1cc(F)ccc1F)c1coc(CN2CCN(c3ncccn3)CC2)n1
bacterial growth OD600 (polymyxin B 1 µg/mL): 0.823

CC(C)CCN(C)Cc1cnc(S(=O)(=O)CC(C)C)n1Cc1ccccc1
bacterial growth OD600 (polymyxin B 1 µg/mL): 0.008

c1ccc(CNc2nc3nonc3nc2N2CCCC2)cc1
bacterial growth OD600 (polymyxin B 0.75 µg/mL): 0.881

COc1cccc(CN2C[C@@H]3C[C@@H](c4cccc(Cl)c4)N4CCC[C@@]34C2=O)c1
bacterial growth OD600 (polymyxin B 0.75 µg/mL): 0.715

COc1ccc(CCN2CCCC(CN(C)Cc3ccc(NC(C)=O)cc3)C2)cc1 (stereo unspecified)
bacterial growth OD600 (polymyxin B 1 µg/mL): 0.826
